Measurements reported in article doi:10.1101/2021.07.05.451109 (bioRxiv, 2021).
Results are given in words; binding and its absence hold for the method and conditions named. In cells and extracts the contact can be indirect. Some entries that bind do so weakly or less than the wild type.

Protein sequences, listed by entry. Tags and fused reporters are not part of them. Residues count along the entry.
UniProt Q9HC97: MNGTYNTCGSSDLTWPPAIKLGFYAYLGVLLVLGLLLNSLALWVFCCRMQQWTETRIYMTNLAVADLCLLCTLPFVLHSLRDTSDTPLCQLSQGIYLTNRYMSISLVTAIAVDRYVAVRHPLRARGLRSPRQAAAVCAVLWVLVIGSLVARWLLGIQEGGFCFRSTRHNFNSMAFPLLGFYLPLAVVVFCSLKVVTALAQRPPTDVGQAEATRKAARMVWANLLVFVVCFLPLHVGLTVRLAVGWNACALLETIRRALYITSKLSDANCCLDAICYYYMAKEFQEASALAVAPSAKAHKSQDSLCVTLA
UniProt P51681: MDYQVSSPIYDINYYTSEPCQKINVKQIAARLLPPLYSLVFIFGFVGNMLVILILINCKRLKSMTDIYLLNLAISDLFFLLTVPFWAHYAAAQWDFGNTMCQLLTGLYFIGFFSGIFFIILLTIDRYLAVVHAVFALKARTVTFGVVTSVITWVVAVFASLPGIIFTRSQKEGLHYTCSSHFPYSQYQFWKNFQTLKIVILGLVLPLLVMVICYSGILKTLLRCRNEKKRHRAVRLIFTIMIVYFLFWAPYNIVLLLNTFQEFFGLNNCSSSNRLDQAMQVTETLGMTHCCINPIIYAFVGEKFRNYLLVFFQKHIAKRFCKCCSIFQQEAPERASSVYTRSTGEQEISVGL
UniProt O14786, residues 22-923: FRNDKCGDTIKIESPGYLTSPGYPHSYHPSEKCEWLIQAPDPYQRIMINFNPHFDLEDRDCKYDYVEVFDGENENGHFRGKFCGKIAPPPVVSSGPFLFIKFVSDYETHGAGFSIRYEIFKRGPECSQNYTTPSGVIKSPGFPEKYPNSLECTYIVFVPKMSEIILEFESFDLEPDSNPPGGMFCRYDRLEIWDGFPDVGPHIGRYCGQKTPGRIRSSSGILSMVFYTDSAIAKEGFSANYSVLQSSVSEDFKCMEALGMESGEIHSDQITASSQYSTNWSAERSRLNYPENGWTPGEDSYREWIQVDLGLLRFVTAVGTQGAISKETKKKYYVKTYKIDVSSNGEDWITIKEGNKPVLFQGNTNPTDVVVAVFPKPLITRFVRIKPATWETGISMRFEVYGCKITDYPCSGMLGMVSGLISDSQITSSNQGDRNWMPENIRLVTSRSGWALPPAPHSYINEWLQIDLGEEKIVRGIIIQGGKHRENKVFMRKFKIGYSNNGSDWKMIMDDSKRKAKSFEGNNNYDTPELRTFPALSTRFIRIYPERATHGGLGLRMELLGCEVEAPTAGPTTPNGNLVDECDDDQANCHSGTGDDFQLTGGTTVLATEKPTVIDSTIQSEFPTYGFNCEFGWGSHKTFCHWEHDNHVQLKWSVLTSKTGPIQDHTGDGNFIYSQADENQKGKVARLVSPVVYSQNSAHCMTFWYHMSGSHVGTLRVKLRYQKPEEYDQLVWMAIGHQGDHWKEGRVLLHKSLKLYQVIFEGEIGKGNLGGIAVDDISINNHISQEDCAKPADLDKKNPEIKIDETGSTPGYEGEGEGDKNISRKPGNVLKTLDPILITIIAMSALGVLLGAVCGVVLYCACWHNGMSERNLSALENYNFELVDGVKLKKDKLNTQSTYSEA
UniProt P32121: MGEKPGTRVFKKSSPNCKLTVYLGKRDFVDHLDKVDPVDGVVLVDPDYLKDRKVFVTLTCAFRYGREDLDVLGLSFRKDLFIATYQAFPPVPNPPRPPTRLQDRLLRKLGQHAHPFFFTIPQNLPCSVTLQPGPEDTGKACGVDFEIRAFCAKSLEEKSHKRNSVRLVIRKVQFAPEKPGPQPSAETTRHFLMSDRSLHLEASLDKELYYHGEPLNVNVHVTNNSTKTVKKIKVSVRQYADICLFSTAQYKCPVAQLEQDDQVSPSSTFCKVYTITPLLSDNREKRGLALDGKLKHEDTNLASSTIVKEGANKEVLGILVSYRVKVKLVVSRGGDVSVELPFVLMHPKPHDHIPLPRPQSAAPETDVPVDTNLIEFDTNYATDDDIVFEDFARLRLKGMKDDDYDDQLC

Assays:
Test in all cases: FRET or BRET
GPR35/NLuc = GPR35/NLuc (UniProt Q9HC97)
CCR5/Rluc8 = CCR5/Rluc8 (UniProt P51681)
NLuc/NRP1 = NLuc/NRP1 (UniProt O14786)

“β-arrestin2/Venus (from UniProt P32121 1-409)” was tested, and the binding (GPR35/NLuc) was “binds” and the binding (CCR5/Rluc8) was “binds”.

B1: 24Leu-CXCL17 (ligand)
chain: LNPGVARGHRDRGQASRRWLQEGGQECECKDWFLRAPRRKFMTVSGLPKKQCPCDHFKGNVKKTRHQRHHRKPNKHSRACQQFLKQCQLRSFALPL
With B1 the binding (NLuc/NRP1) was “binds”.
